Source: article PMC6381605, “NR4A Nuclear Receptors Target Poly-ADP-Ribosylated DNA-PKcs Protein to Promote DNA Repair”
Results are given in words; binding and its absence hold for the method and conditions named. Some binding calls cover weakened binding; strength is not graded here.

Sequences of proteins named here, by UniProt entry; tags and fusion partners are left off.
UniProt P78527: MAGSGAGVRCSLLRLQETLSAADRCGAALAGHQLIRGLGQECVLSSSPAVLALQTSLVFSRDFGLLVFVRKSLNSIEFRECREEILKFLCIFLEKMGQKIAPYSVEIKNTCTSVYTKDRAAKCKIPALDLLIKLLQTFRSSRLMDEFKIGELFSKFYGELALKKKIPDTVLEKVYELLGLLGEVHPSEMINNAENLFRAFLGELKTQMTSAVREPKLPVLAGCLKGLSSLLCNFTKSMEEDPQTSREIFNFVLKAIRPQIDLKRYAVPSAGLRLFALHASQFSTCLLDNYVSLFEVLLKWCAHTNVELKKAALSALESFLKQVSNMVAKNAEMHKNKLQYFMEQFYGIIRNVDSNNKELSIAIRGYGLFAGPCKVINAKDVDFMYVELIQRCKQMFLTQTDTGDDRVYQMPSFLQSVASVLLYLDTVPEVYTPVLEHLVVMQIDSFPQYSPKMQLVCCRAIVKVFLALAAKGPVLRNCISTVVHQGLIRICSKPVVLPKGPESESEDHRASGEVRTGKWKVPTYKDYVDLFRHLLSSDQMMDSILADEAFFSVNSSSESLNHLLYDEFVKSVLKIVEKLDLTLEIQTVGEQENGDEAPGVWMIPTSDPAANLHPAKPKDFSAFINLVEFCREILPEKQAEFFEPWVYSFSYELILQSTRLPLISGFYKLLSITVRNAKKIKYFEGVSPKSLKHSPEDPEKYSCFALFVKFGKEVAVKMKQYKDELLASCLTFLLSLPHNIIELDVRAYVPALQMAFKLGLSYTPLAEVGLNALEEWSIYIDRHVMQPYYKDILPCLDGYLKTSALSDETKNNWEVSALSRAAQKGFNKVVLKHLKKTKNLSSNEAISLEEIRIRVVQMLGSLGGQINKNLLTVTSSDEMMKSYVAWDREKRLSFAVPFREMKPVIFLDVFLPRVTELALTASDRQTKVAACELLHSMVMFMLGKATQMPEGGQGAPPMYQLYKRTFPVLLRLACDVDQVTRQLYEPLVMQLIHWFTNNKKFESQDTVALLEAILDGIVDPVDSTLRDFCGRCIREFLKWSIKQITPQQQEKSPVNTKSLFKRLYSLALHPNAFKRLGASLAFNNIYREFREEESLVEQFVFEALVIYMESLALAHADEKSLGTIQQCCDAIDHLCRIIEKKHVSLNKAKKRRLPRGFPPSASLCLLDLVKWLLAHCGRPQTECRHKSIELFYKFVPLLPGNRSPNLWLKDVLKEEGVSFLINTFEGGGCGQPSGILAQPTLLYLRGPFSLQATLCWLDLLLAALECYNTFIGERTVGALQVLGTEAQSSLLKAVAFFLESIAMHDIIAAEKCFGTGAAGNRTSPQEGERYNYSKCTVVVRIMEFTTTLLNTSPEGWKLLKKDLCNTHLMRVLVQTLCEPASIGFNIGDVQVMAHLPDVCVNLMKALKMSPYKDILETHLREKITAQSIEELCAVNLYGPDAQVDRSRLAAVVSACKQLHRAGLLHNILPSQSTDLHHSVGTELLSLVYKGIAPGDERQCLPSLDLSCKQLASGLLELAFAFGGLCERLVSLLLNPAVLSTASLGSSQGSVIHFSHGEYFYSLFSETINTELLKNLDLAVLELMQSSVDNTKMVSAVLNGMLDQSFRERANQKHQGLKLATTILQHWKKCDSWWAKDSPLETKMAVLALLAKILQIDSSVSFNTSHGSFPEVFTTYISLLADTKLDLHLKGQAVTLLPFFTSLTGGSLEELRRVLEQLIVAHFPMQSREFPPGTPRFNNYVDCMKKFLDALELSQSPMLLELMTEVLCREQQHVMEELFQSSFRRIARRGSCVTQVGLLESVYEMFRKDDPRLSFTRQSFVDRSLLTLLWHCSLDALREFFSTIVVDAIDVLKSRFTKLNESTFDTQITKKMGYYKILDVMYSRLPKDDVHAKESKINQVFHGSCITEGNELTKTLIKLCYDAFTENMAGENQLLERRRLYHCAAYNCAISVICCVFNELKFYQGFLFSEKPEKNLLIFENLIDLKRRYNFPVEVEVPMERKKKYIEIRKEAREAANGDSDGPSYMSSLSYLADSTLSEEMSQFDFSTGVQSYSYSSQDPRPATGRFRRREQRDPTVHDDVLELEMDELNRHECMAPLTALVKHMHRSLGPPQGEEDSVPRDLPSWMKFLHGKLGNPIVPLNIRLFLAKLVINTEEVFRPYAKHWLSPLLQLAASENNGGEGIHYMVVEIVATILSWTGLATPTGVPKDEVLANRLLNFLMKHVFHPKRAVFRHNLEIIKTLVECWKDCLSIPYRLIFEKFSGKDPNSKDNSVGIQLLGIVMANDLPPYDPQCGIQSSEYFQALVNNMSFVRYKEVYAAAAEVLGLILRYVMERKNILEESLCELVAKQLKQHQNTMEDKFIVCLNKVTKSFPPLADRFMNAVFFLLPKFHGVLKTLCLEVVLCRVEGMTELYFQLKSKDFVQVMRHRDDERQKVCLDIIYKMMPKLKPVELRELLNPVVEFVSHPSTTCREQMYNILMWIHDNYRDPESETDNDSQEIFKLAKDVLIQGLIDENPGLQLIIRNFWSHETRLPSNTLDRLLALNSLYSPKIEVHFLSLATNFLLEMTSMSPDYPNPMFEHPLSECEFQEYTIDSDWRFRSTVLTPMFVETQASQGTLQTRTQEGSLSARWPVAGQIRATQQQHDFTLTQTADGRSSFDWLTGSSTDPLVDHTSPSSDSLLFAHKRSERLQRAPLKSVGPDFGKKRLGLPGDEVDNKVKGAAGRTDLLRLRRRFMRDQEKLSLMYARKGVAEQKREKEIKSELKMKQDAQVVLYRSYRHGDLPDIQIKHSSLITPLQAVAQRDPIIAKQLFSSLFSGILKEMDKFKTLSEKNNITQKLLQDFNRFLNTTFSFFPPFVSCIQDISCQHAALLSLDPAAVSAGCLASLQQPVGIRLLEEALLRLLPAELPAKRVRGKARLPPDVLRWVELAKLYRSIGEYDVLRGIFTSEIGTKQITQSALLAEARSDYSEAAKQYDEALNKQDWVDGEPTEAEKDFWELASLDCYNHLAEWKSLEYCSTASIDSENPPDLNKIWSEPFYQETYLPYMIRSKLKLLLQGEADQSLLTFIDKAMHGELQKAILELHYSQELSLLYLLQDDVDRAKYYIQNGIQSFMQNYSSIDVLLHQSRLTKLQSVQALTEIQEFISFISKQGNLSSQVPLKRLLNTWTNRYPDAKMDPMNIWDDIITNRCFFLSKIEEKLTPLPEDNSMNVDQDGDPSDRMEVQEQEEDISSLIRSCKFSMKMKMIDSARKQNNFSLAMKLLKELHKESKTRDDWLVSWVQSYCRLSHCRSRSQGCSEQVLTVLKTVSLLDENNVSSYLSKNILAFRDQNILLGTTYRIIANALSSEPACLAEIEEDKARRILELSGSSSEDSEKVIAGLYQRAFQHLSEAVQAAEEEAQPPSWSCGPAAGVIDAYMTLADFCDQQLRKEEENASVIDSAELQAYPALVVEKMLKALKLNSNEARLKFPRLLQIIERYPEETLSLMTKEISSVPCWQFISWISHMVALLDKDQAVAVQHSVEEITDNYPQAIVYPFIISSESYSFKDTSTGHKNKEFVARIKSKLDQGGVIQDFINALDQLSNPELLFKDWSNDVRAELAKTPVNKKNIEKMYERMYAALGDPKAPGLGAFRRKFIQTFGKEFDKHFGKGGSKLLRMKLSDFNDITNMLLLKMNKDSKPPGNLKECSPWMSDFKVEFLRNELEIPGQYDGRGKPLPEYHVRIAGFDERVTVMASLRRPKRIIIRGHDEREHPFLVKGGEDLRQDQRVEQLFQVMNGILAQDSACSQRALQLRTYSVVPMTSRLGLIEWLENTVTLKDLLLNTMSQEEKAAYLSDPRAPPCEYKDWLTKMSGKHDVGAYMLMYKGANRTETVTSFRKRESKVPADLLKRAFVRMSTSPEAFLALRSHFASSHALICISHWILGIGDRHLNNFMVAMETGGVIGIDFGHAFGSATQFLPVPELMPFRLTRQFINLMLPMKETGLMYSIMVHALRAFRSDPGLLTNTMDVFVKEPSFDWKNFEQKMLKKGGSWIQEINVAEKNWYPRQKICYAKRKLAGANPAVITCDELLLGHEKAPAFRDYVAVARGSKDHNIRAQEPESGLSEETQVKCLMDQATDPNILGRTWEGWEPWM

Target: GST-DBD NR4A2 (aa 245-360) (UniProt Q06219)
Assay: pull-down; GST-DBD NR4A2 on GST beads as bait; equimolar pure FLAG-DNA-PKcs or FLAG-Ku70/Ku80 as prey; 1 hr on ice in 50 mM Tris pH 7.5, 150 mM NaCl, 0.5% Triton X-100, 1 mM DTT; washes with 300 mM NaCl; elution by PreScission cleavage; western blot; both purified

| binding | Substance |
| --- | --- |
| binds | FLAG-Ku70/Ku80 complex purified from cells treated with IR and PARP inhibitor (no PARylation) (from UniProt P12956 1-609; P13010 1-732) |
| binds | FLAG-DNA-PKcs purified from IR-treated cells (poly-ADP-ribosylated) (from UniProt P78527 1-4128) (enzyme) |
